Data reported in PMC5399177.
These are yes or no findings as the source states them, for the method shown. Binding seen in cells or lysates may run through a third protein. Some entries that bind do so weakly or less than the wild type. Where a sequence is shown, tags or fusion partners need not be part of it.

Chains of the proteins cited; added tags and fusions are not shown.
UniProt P40763: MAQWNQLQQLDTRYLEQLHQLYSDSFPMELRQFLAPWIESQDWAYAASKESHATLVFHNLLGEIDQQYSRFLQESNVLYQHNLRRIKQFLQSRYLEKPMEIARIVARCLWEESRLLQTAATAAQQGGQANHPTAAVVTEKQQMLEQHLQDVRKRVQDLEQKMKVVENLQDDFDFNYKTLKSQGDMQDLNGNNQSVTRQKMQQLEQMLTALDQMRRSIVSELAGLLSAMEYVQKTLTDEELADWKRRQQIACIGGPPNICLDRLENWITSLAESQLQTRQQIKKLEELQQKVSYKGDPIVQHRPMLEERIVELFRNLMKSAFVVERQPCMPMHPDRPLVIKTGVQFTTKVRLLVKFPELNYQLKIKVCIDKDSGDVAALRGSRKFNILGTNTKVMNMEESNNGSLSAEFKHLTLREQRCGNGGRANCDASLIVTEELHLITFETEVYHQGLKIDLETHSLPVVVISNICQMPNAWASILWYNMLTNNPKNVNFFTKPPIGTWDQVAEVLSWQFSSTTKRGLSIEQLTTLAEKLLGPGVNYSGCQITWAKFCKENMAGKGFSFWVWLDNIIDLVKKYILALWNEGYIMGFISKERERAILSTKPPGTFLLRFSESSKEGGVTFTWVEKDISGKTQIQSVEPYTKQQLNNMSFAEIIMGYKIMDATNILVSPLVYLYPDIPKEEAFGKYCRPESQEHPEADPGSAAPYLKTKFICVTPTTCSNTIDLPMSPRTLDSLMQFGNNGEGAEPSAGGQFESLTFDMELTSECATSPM

Molecular target: T1, Flag-DAB2IP (UniProt Q5VWQ8)
T1 sequence: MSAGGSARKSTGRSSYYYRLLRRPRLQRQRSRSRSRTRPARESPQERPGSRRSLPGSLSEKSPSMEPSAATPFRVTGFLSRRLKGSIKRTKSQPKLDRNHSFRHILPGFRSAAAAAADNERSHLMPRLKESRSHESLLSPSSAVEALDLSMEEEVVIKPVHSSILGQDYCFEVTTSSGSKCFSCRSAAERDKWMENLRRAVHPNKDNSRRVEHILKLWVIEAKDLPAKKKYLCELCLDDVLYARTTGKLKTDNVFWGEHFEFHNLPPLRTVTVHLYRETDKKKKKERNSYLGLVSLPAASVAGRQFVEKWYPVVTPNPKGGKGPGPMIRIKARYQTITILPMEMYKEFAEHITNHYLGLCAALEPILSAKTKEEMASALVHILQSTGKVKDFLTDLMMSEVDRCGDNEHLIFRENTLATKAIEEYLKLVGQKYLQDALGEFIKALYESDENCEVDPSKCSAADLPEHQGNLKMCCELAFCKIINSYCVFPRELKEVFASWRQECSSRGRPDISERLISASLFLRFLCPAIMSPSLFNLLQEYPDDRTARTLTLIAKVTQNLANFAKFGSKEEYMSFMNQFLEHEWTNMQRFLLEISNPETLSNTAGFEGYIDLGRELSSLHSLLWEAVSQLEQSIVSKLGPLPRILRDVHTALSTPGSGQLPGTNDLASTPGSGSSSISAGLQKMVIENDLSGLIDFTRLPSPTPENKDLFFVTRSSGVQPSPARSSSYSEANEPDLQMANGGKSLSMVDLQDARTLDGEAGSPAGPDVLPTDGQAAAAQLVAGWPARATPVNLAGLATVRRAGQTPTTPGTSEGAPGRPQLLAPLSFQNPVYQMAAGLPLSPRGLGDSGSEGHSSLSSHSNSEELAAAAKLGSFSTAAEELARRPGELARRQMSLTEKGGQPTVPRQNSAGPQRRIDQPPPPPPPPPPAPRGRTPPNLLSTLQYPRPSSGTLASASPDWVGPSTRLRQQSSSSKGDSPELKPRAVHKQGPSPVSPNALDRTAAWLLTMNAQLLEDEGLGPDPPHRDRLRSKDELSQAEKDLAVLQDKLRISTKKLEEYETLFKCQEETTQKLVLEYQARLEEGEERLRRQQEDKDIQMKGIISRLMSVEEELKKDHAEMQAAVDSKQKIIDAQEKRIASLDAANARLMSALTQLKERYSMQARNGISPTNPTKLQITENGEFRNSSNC
Experiment: co-IP; HEK 293 cells transfected with Flag-tagged DAB2IP constructs; lysates precipitated with Flag antibody and probed with t-STAT3 antibody, or precipitated with t-STAT3 antibody and probed with Flag antibody

- binding: binds
Substance: signal transducer and activator of transcription 3 (from UniProt P40763 1-770)
